Laboratory results: patent publication US20110300100A1 (CSL, published 2011)
Results are given in words; binding and its absence hold for the method and conditions named. Some entries that bind do so weakly or less than the wild type. Where a sequence is shown, tags or fusion partners need not be part of it.

T1: mIL-11Rα-Fc (murine, UniProt Q64385 24-372)
T1 construct: Coated on the ELISA plates; not shown: Fc part of the bought fusion protein
T1 sequence (looked up): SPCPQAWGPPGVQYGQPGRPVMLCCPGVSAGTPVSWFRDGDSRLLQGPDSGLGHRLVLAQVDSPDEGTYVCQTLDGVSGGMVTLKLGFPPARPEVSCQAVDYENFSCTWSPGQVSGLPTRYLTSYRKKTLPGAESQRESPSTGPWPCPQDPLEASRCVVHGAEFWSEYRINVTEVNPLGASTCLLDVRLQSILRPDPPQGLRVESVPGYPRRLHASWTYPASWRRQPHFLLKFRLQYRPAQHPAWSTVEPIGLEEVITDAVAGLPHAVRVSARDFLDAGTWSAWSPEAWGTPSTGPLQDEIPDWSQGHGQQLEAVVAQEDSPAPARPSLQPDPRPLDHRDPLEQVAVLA

B1: mIL-11-W147A, N-terminal hexahistidine-tagged (ligand, not shown: small tags and cut ends)
chain: PGPPAGSPRVSSDPRADLDSAVLLTRSLLADTRQLAAQMRDKFPADGDHSLDSLPTLAMSAGTLGSLQLPGVLTRLRVDLMSYLRHVQWLRRAGGPSLKTLEPELGALQARLERLLRRLQLLMSRLALPQAAPDQPVIPLGPPASAAGSIRAAHAILGGLHLTLDWAVRGLLLLKTRL
B2: non-PEGylated thrombin cleaved mutein 1.21 (amino acids 10-178 of SEQ ID NO:10) (ligand)
chain: VSSDPRADLDSAVLLTRSLLADTRQLAAQMRDKFPADGDHSLDSLPTLPAIDYTLGSLQLPGVLTRLRVDLMSYLRHVQWLRRAGGPSLKTLEPELGALQARLERLLRRLQLLMSRLALPQAAPDQPVIPLGPPASAAGSIRAAHAILGGLHLTLDWAVRGLLLLKTRL

Tests used:
mIL-11Rα-Fc [1] = target: T1, mIL-11Rα-Fc; test: competition ELISA, soluble protein against phage displayed IL-11 variants on coated mIL-11Rα-Fc
Description: The affinity of the selected IL-11 mutants for IL-11Rα was determined in a competition ELISA experiment. […] After incubation for 2 hours at room temperature, the plates were washed and bound phage were then labeled with an anti-M13 polyclonal antibody conjugated to horseradish peroxidase. After the removal of excess antibody by washing with PBS containing 0.05% Tween 20, TMB substrate was added to each well and incubated for 10 minutes before the reaction was quenched by the addition of 2M phosphoric acid. Absorbance at 450 nm was then determined for each well by analysis on a microtitre plate reader.
Clear differences were observed between the affinities of the mIL-11-W147A and mutant proteins for binding to IL-11Rα-Fc.

mIL-11Rα-Fc [2] = target: T1, mIL-11Rα-Fc; test: comparison with full-length 1.21; assay not named
mIL-11Rα-Fc [3] = target: T1, mIL-11Rα-Fc; test: capture ELISA on coated mIL-11Rα-Fc, detection with biotinylated anti-mIL-11

Binder	binding (mIL-11Rα-Fc [1])	binding (mIL-11Rα-Fc [2])	binding (mIL-11Rα-Fc [3])
B1	binds		
B2		binds	binds
